Assay results taken from US20120148565A1.
Results are given in words; binding and its absence hold for the method and conditions named. In cells and extracts the contact can be indirect. Some binding calls cover weakened binding; strength is not graded here. Where a sequence is shown, tags or fusion partners need not be part of it.

By UniProt entry, the sequences of proteins in these tests, tags left out. Where a name states a change or a piece, a line headed by the entry shows the natural chain unless it says otherwise.
UniProt Q9N2Z7: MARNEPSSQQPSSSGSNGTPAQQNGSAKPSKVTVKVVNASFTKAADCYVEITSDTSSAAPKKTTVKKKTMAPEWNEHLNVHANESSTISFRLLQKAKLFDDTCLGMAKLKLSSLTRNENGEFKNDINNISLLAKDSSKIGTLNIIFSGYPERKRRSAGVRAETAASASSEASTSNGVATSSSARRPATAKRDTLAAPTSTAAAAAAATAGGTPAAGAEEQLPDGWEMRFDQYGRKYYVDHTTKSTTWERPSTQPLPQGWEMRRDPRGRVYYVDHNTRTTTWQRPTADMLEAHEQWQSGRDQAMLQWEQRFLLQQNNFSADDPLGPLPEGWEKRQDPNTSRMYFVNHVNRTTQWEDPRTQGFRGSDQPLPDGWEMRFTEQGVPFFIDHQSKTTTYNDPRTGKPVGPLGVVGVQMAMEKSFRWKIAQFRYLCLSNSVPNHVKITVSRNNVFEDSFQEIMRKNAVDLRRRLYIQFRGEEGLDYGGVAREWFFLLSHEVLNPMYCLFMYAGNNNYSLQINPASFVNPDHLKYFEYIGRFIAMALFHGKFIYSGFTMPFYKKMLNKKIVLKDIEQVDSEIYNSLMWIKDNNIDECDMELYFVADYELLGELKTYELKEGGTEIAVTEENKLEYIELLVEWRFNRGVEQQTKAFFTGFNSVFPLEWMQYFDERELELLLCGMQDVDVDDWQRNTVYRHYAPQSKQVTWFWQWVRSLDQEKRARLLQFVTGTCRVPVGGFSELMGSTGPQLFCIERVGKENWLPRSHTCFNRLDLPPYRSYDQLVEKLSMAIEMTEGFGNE

Target: T1, UBC-18-Myc fusion protein (C. elegans UBC-18, full length, myc-His tag from pcDNA6/myc-His, expressed in NIH3T3 cells) (C. elegans) (UniProt Q21633)
T1 sequence: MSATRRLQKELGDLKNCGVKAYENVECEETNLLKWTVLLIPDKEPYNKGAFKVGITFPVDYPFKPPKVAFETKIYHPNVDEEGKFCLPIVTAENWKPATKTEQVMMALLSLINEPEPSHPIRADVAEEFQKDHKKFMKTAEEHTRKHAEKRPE
Test: GST pull-down on glutathione agarose beads from NIH3T3 lysate, anti-myc immunoblot

- binding: binds
Substance: GST fused WWP-1 (C. elegans HECT E3 ubiquitin ligase WWP-1, full length, wild type, N-terminal GST from pGEX-KG) (from UniProt Q9N2Z7 1-794) (enzyme)
